Results deposited as PubChem BioAssay AID1159578 (Peter MacCallum Cancer Centre, 2015).
Here is a random part of about 18,000 reagents. Of all reagents, about 1,030 (5.7%) are marked active. 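Inactive calls also include pools with fewer than 3300 nuclei, whose migration was not assessed.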 The raw values are shown without normalisation. Further read-outs or replicates are left out here. Reagent sequences are not shown.

Purpose: 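Knock-downs that alter how fast lymphatic endothelial cells migrate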 (primary screen)
Cell system: human lymphatic endothelial cells
Reagent: siRNA pool against human genes, 40 nM
Timing: 48 h after transfection
Read-out: 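High-content imaging of dye-stained cells in a scratch assay measures filled wound area and nuclei per well; duplicate means given as ratio to mock and robust z-score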
Scale: migration robust z-score: higher = faster migration into the scratch; nuclei per well: higher = more cells in the well
Call rule: 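Pools averaging fewer than 3300 nuclei are never called; remaining pools count as changed when migration robust z lies outside -2 to 2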
Meaning of the calls: active = migration changed; inactive = no migration change, or too few cells

| gene | migration robust z-score | nuclei per well, duplicate mean | call |
| --- | --- | --- | --- |
| RAB42 | -0.32 | 5705 | inactive |
| PTPRK | 0.52 | 4948 | inactive |
| MXD4 | -2 | 4036 | inactive |
| PRKCH | -1.46 | 5290 | inactive |
| SPATA2L | 0.36 | 5336 | inactive |
| GSDMA | 0.95 | 5967 | inactive |
| LY96 | 1.35 | 6218 | inactive |
| RABL3 | 0.25 | 6301 | inactive |
| CMYA5 | -1.14 | 4874 | inactive |
| RPL32 | -3.01 | 2347 | inactive |
| MYMK | -0.67 | 6760 | inactive |
| PMS2P5 | 0.44 | 5666 | inactive |
| ALX1 | -1.38 | 4328 | inactive |
| RNF121 | 0.29 | 5204 | inactive |
| ACBD5 | 0.08 | 6346 | inactive |
| NKX2-1 | -1.84 | 5619 | inactive |
| CTAG1A | 0.33 | 4863 | inactive |
| SMARCE1 | 0.42 | 4003 | inactive |
| C10orf95 | -0.01 | 4260 | inactive |
| GOLGA6B | 1.71 | 6044 | inactive |
| PPARGC1B | 0.02 | 4988 | inactive |
| IRF2BP1 | 0.24 | 4834 | inactive |
| RAD9B | -0.46 | 5777 | inactive |
| SHTN1 | 0.57 | 4972 | inactive |
| ATP5F1C | 0.65 | 6676 | inactive |
| DNAH7 | 0.18 | 5579 | inactive |
| CHST15 | 1.06 | 5198 | inactive |
| MYRIP | -1.05 | 3864 | inactive |
| PLK1 | -2.98 | 1036 | inactive |
| XRCC5 | 1.01 | 5649 | inactive |
| DRC3 | -3.48 | 4704 | active |
| KCTD13 | -0.42 | 4522 | inactive |
| H2BC5 | 0.66 | 6864 | inactive |
| LYPD3 | 0 | 4801 | inactive |
| PCDHA7 | -0.46 | 6386 | inactive |
| OR6C76 | -2.15 | 4324 | active |
| KDM5A | 0.18 | 6947 | inactive |
| TONSL | -0.86 | 6578 | inactive |
| HINFP | 1.06 | 6132 | inactive |
| SCIN | 2.38 | 6160 | active |
| CMTM5 | -1.25 | 5455 | inactive |
| INSIG1 | -0.82 | 5732 | inactive |
| PYCR2 | 0.08 | 5333 | inactive |
| SIGLEC9 | 0.38 | 6266 | inactive |
| HPSE2 | 0.91 | 6216 | inactive |
| STC1 | 0.78 | 5520 | inactive |
| ANXA2R | 0.1 | 6414 | inactive |
| ATP6V1F | -1.27 | 5744 | inactive |
| NLRP8 | -0.55 | 6564 | inactive |
| AAR2 | 0.07 | 4888 | inactive |
| DTX3 | -0.94 | 4579 | inactive |
| CIDEB | 0.1 | 4921 | inactive |
| HIBCH | 0.39 | 6018 | inactive |
| ZNF575 | 0.56 | 5634 | inactive |
| MYNN | -0.68 | 6072 | inactive |
| LRRC28 | 1.18 | 5247 | inactive |
| OR4L1 | 1.2 | 6800 | inactive |

Reagents above with an active call (3):
| gene | migration robust z-score | nuclei per well, duplicate mean | call |
| --- | --- | --- | --- |
| DRC3 | -3.48 | 4704 | active |
| OR6C76 | -2.15 | 4324 | active |
| SCIN | 2.38 | 6160 | active |
